Data taken from the supplement of paper PMC10849652.
The other results are listed elsewhere or left out.

Protein sequences, listed by entry. Tags and fused reporters are not part of them. Lines headed by an entry give the natural chain unless they say otherwise; changes in a name come on top.
UniProt Q04837: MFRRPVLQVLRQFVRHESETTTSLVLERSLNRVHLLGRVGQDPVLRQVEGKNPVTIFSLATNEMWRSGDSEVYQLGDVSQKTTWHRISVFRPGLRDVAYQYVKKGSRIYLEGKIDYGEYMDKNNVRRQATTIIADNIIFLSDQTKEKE
UniProt O95630, whole entry, looked up: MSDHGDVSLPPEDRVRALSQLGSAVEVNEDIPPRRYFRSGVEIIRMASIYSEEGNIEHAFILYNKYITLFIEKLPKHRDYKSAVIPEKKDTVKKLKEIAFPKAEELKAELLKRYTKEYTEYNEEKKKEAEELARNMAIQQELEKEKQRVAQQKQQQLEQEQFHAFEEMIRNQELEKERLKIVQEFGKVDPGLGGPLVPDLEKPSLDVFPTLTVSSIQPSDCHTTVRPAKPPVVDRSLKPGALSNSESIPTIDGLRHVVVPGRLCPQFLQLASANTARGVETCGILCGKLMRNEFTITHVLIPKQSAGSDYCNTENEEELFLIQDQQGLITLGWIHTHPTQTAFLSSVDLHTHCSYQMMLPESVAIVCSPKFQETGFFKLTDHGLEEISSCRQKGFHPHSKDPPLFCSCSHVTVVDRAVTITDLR
UniProt Q9HBM1: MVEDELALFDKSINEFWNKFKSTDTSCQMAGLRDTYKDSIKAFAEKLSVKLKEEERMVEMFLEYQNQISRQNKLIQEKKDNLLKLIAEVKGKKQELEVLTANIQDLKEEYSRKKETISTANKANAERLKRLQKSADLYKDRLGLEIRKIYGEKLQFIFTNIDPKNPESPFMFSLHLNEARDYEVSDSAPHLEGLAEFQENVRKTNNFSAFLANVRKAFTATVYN
UniProt Q8IYB3: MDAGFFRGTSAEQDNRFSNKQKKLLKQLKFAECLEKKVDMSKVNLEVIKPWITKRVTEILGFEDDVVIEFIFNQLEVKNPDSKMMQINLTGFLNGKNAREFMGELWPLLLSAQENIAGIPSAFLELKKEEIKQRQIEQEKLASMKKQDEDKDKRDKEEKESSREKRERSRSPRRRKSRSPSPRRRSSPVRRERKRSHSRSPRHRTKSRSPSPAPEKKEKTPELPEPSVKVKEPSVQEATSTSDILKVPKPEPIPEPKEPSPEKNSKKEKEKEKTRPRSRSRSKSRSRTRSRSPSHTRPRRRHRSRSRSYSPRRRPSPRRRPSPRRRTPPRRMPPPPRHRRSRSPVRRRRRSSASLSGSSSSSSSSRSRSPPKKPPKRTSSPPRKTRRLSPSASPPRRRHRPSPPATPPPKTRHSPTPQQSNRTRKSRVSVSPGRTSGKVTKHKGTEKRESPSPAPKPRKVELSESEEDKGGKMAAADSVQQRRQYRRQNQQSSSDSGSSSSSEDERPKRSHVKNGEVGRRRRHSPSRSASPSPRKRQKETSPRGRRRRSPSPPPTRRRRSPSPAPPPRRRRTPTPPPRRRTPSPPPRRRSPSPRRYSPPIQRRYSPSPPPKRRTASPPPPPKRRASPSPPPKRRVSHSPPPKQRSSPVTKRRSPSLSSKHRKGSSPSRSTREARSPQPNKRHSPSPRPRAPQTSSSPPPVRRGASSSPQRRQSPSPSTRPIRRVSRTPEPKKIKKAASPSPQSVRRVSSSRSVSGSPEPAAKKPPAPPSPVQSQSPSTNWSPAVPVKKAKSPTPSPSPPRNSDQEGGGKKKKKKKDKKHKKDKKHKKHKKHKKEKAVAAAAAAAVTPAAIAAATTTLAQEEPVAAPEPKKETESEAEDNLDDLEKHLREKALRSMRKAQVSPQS
UniProt P43307: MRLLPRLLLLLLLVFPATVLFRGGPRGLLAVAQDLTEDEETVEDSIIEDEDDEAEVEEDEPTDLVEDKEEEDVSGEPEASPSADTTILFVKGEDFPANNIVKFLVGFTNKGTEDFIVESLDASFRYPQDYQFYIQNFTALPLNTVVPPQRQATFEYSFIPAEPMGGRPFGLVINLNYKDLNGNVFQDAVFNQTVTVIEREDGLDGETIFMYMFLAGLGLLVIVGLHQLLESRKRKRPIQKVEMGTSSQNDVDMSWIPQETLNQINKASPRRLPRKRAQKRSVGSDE
UniProt Q9BXP5: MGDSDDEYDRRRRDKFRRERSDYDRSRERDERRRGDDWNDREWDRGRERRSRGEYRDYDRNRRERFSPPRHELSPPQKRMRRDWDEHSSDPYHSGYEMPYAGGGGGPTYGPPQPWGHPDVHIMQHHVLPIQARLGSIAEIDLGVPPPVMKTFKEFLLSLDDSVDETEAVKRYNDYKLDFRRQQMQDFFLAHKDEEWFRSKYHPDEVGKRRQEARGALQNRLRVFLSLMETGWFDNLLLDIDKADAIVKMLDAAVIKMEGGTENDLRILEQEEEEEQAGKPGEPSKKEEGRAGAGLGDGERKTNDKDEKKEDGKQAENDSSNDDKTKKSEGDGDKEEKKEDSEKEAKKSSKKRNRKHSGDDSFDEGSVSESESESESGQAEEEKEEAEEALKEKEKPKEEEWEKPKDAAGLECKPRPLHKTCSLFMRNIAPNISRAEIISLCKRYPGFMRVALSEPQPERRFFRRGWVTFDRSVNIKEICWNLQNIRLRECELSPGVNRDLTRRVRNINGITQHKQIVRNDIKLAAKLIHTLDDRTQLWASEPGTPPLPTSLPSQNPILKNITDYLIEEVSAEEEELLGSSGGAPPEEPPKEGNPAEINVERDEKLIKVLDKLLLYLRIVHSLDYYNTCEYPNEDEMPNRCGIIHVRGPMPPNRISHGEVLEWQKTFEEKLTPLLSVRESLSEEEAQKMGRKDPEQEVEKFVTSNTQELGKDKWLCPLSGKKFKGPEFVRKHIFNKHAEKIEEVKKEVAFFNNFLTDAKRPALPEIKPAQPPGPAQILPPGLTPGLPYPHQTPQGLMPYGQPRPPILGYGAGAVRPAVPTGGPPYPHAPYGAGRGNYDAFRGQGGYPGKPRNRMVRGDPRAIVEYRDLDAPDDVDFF
UniProt Q15831: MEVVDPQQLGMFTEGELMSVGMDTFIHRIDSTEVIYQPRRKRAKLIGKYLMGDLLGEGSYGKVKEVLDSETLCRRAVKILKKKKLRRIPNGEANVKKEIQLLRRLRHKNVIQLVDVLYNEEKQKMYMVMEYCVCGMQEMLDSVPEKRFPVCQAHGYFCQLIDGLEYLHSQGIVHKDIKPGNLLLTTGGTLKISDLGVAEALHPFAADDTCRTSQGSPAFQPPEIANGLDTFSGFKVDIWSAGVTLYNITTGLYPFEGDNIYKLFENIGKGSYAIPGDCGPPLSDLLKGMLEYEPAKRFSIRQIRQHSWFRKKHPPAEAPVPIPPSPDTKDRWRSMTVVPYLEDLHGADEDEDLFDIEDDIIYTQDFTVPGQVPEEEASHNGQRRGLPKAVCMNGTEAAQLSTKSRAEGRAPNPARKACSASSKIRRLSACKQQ
UniProt P49458: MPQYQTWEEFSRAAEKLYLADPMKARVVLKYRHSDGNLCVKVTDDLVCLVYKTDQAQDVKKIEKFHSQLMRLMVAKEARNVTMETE
UniProt P10124: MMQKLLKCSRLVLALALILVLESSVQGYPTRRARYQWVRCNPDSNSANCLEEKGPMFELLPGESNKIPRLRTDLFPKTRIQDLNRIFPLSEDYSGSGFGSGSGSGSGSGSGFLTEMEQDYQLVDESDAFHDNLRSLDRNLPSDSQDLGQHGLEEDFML
UniProt Q9UQ90: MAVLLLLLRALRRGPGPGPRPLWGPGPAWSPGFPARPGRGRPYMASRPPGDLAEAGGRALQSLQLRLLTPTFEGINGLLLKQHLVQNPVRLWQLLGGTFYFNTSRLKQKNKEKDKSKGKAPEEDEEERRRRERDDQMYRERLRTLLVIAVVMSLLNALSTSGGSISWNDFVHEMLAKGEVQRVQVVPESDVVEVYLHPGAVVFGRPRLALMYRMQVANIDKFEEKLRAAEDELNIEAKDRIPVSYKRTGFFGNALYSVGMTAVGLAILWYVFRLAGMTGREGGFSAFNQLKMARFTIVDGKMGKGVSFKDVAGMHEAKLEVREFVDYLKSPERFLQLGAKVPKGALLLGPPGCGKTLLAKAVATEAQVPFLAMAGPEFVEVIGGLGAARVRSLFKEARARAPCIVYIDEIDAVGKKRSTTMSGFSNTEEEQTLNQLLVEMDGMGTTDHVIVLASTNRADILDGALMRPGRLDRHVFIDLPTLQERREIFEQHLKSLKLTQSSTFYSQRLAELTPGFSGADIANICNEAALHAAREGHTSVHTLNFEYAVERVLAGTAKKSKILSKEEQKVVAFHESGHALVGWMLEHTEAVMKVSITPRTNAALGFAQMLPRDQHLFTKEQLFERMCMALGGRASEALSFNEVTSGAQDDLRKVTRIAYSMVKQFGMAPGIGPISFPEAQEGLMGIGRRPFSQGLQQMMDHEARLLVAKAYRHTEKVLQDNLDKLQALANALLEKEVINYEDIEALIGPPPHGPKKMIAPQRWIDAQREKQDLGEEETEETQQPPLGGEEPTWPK
UniProt P09132: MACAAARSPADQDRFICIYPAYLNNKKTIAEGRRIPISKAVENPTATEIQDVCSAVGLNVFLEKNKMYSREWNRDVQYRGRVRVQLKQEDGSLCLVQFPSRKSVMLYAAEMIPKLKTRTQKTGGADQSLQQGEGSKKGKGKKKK
UniProt O95793: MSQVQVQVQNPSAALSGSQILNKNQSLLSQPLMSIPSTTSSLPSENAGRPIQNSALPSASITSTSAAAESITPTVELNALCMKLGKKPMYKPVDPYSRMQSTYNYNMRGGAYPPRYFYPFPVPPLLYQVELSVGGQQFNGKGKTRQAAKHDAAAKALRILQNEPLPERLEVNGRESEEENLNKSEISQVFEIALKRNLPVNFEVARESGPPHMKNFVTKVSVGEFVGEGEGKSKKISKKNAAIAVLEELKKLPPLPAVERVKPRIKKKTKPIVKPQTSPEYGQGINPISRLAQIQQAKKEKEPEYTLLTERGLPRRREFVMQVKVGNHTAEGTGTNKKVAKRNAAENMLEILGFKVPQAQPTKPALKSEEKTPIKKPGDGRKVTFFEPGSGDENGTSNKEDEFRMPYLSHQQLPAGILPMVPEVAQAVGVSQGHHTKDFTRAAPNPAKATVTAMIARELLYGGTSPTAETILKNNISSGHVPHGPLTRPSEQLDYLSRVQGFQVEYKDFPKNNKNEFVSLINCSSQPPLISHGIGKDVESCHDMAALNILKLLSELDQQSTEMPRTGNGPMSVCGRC
UniProt Q13243: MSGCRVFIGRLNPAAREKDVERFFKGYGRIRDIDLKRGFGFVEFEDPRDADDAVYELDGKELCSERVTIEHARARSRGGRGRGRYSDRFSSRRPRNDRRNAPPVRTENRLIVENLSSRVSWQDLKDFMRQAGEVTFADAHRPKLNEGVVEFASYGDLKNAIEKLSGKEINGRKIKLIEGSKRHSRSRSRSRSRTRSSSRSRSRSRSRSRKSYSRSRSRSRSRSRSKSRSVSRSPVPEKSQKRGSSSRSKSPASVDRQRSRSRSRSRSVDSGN
UniProt P19623: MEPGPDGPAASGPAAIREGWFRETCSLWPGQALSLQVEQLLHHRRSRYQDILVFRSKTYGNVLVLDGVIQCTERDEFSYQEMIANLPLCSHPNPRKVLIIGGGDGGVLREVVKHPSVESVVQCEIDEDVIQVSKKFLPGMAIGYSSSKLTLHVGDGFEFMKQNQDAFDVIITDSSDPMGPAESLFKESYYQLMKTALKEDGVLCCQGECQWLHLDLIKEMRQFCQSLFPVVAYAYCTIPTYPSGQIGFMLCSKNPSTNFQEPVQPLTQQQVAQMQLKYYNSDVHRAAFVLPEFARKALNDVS
UniProt Q8NB90: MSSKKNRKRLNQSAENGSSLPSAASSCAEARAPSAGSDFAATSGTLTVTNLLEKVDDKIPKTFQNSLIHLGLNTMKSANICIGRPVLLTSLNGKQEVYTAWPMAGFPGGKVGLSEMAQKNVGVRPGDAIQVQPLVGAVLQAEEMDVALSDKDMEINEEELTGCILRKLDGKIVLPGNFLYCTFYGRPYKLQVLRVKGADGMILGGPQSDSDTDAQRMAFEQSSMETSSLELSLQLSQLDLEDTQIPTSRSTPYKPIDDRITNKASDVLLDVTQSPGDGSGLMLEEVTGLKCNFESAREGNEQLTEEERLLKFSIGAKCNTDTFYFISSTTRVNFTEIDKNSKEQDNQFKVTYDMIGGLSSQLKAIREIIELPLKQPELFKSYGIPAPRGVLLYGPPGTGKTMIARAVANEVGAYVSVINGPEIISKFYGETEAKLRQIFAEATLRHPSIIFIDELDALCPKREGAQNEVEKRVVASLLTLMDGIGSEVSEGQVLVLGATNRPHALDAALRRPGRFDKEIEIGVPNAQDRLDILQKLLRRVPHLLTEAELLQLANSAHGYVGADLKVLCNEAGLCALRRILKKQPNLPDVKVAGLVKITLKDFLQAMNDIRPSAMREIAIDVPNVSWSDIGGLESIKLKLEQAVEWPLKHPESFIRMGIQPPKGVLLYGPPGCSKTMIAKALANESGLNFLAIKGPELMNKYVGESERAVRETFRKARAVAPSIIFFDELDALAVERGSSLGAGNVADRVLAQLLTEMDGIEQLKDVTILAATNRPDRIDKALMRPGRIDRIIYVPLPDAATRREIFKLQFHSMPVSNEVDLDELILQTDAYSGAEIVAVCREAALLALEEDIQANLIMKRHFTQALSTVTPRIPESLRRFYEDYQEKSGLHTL

Each target was assayed with Cc1nc(Nc2ncc(C(=O)Nc3c(C)cccc3Cl)s2)cc(N2CCN(CCO)CC2)n1 [dasatinib] (assay: log2 fold change, soluble protein after heating vs DMSO (PISA); higher = thermal stabilisation; K562 cells, 10 uM, 30 min; active = over 0.2 and 3.5 SD of the protein, either way, in both replicates (recomputed)).
Summary of the method: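 Soluble protein was defined as the supernatant after 21,000xg for 90 min. It came from K562 cells at 2×10^6 cells/mL given 10 μM compound for 30 min, heated in aliquots for 3 min across 48°C-58°C, pooled, and extracted in PBS with 0.5% NP-40 at 4°C, and was quantified by TMTpro 16plex LC-MS/MS with equalised channel sums. Thermal stability against control samples, from duplicates, is reported as log2 fold change.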

log2 fold change, inactive:
SSBP1 (UniProt Q04837) 0.049
STAMBP (UniProt O95630) -0.125
SPC25 (UniProt Q9HBM1) -0.024
SRRM1 (UniProt Q8IYB3) 0.047
SSR1 (UniProt P43307) 0.05
SRRT (UniProt Q9BXP5) -0.35
STK11 (UniProt Q15831) -0.018
SPTA1 (UniProt P02549) 0.003
SPTAN1 isoform 2 (UniProt Q13813) 0.038
SRP9 (UniProt P49458) 0.202
SPN (UniProt P16150) 0.026
SPTLC2 (UniProt O15270) -0.024
SRGN (UniProt P10124) 0.389
SRPK1 (UniProt Q96SB4) 0.078
SPG7 (UniProt Q9UQ90) 0.013
SRP19 (UniProt P09132) -0.061
SPRY4 (UniProt Q9C004) 0.018
SPC24 (UniProt Q8NBT2) -0.08
STAU1 (UniProt O95793) 0.166
SRP14 (UniProt P37108) 0.18
SRSF5 (UniProt Q13243) 0.145
SRM (UniProt P19623) -0.018
STIP1 isoform 2 (UniProt P31948) 0.009
SPATA5 (UniProt Q8NB90) 0.018

A section taken from the entries so far, as a working copy:
log2 fold change, inactive:
STIP1 isoform 2 (UniProt P31948) 0.009
SPATA5 (UniProt Q8NB90) 0.018
